Data published in patent publication US7041801.
Results are given in words; binding and its absence hold for the method and conditions named. Some results given as binding are weak or reduced against the parent protein; the word gives no strength.

Chains of the proteins cited; added tags and fusions are not shown. Lines headed by an entry give the natural chain unless they say otherwise; changes in a name come on top.
UniProt P06756: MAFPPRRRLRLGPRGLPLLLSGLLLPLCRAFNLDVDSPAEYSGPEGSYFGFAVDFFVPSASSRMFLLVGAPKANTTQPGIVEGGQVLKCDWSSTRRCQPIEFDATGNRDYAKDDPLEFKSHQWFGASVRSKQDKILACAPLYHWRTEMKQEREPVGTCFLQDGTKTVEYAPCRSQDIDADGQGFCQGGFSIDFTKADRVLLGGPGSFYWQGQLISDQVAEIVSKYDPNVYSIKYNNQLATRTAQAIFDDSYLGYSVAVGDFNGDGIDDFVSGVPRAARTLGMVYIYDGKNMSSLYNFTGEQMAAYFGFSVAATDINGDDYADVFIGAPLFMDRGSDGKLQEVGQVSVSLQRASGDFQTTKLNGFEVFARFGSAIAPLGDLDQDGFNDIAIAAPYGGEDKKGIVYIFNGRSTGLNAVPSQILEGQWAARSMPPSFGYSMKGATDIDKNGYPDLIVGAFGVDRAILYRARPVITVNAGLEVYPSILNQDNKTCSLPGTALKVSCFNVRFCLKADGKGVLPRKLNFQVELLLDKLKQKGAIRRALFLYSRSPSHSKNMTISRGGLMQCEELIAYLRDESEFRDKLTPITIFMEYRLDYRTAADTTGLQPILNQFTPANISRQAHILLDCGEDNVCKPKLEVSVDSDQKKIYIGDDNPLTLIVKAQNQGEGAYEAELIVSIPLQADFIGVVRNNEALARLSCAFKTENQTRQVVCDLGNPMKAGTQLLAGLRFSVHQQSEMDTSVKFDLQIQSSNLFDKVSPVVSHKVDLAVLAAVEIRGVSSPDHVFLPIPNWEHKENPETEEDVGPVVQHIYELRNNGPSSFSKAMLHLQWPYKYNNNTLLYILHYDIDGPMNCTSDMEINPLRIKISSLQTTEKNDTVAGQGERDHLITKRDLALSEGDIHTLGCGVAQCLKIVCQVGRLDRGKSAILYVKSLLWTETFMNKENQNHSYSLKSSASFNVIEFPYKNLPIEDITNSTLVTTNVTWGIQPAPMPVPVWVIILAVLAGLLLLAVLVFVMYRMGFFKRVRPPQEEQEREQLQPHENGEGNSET
UniProt P05106: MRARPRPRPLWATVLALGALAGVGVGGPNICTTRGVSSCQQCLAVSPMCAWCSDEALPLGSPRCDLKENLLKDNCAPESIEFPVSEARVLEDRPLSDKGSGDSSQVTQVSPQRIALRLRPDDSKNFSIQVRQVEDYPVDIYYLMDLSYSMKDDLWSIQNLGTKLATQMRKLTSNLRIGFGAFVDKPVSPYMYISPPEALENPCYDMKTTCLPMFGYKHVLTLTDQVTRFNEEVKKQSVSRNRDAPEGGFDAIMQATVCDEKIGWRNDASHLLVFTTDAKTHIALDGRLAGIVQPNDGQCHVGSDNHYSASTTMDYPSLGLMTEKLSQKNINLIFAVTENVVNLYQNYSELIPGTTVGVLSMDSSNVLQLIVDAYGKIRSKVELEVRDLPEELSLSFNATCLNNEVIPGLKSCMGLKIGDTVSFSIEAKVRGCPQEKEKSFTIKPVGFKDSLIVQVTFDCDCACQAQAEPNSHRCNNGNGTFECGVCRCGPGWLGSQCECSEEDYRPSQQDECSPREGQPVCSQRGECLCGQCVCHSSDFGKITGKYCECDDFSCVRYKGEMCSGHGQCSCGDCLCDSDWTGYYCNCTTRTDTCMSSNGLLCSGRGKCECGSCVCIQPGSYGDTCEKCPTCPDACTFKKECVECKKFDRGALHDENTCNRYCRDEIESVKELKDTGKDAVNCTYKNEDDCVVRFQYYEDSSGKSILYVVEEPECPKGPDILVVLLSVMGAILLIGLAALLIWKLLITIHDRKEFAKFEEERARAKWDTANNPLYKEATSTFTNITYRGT

Molecular target: integrin αVβ3 expressed by human umbilical vein endothelial cells (HUVEC) (human) (UniProt P06756+P05106)
Experiment: adhesion of HUVEC to plates coated with recombinant Del-1

B1: Recombinant murine Del-1 protein (major form), refolded, from E. coli pET28a (ligand, not shown: small tags and cut ends)
chain: DICNPNPCENGGICLSGLADDSFSCECPEGFAGPNCSSVVEVASDEEKPTSAGPCIPNPCHNGGTCEISEAYRGDTFIGYVCKCPRGFNGIHCQHNINECEAEPCRNGGICTDLVANYSCECPGEFMGRNCQYKCSGHLGIEGGIISNQQITASSNHRALFGLQKWYPYYARLNKKGLINAWTAAENDRWPWIQINLQRKMRVTGVITQGAKRIGSPEYIKSYKIAYSNDGKTWAMYKVKGTNEEMVFRGNVDNNTPYANSFTPPIKAQYVRLYPQICRRHCTLRMELLGCELSGCSEPLGMKSGHIQDYQITASSVFRTLNMDMFTWEPRKARLDKQGKVNAWTSGHNDQSQWLQVDLLVPTKVTGIITQGAKDFGHVQFVGSYKLAYSNDGEHWMVHQDEKQRKDKVFQGNFDNDTHRKNVIDPPIYARFIRILPWSWYGRITLRSELLGCAEEE
In the case of B1, the binding is reported as “binds”.
